# At least one structure is not confirmed: it was looked up by name or label, or the drawing left a doubt.
# How the values were obtained:
# Type in all cases: in vivo
# [1] = test system: genetically diabetic male db/db mice; assay: Fasting blood glucose in db/db mice; details: for Fasting blood glucose mean ± SEM: L-API SC daily, depots IM on Day-1 only
# [2] = test system: genetically diabetic male db/db mice; assay: HbA1C in db/db mice
# [3] = test system: genetically diabetic male db/db mice; assay: Ad lib fed blood glucose in db/db mice
# [4] = Body weight in db/db mice; details: L-API SC daily, depots IM on Day-1 only
smiles,measurement,setting,value
"CCCCCCCCCCCCCCCC(=O)N[C@@H](CCC(=O)NCCCC[C@H](NC(=O)[C@H](C)NC(=O)[C@H](C)NC(=O)[C@H](CCC(N)=O)NC(=O)CNC(=O)[C@H](CCC(=O)O)NC(=O)[C@H](CC(C)C)NC(=O)[C@H](Cc1ccc(O)cc1)NC(=O)[C@H](CO)NC(=O)[C@H](CO)NC(=O)[C@@H](NC(=O)[C@H](CC(=O)O)NC(=O)[C@H](CO)NC(=O)[C@@H](NC(=O)[C@H](Cc1ccccc1)NC(=O)[C@@H](NC(=O)CNC(=O)[C@H](CCC(=O)O)NC(=O)[C@H](C)NC(=O)[C@@H](N)Cc1cnc[nH]1)[C@@H](C)O)[C@@H](C)O)C(C)C)C(=O)N[C@@H](CCC(=O)O)C(=O)N[C@@H](Cc1ccccc1)C(=O)N[C@H](C(=O)N[C@@H](C)C(=O)N[C@@H](Cc1c[nH]c2ccccc12)C(=O)N[C@@H](CC(C)C)C(=O)N[C@H](C(=O)N[C@@H](CCCNC(=N)N)C(=O)NCC(=O)N[C@@H](CCCNC(=N)N)C(=O)NCC(=O)O)C(C)C)[C@@H](C)CC)C(=O)O [L-API, liraglutide]",Fasting blood glucose % change vs. vehicle control,[1]; Day 14,+4.7%
same,Fasting blood glucose mean ± SEM,"[1]; Day 14, overnight fasted",349.0 ± 65.2 mg/dL
same,Fasting blood glucose % change vs. vehicle control,[1]; Day 28,−35.9%
same,Fasting blood glucose mean ± SEM,"[1]; Day 28, overnight fasted",317.4 ± 54.7 mg/dL
same,Fasting blood glucose levels as compared to vehicle control (in words),[1]; Day-14,did not show significant change
same,HbA1c % change vs. vehicle control,[2]; Day 1,−20.0%
same,mean HbA1c % ± SEM,[2]; Day 1,10.0 ± 0.5%
same,HbA1c % change vs. vehicle control,[2]; Day 28,−38.2%
same,mean HbA1c % ± SEM,[2]; Day 28,6.3 ± 0.2%
same,HbA1C levels as compared to vehicle control (in words),[2]; Day-28,significant reduction
same,Ad-lib fed blood glucose levels as compared to vehicle control (in words),"[3]; 200 μg/kg SC daily, post 3 hr. of treatment",significant reduction
same,Fed blood glucose % change vs. vehicle control,[3]; Day 3,−23.9%
same,Ad lib fed blood glucose mean ± SEM,"[3]; Day 3, 3 hr. post treatment",468.3 ± 18.6 mg/dL
same,Fed blood glucose % change vs. vehicle control,[3]; Day 9,−29.9%
same,Ad lib fed blood glucose mean ± SEM,"[3]; Day 9, 3 hr. post treatment",547.4 ± 49.9 mg/dL
same,Body weight as compared to vehicle control (in words),[4],trend towards reduction

# Source: patent publication US20230256058A1 (MAPI PHARMA LTD., priority 2020, published 2023)
